Measured values from PMC12643519.
Results are given in words; binding and its absence hold for the method and conditions named. In cells and extracts the contact can be indirect. Some results given as binding are weak or reduced against the parent protein; the word gives no strength. Values belong to the molecule of their own block, whether it stands above or below them.

Sequences of proteins named here, by UniProt entry; tags and fusion partners are left off.
UniProt Q6URW6: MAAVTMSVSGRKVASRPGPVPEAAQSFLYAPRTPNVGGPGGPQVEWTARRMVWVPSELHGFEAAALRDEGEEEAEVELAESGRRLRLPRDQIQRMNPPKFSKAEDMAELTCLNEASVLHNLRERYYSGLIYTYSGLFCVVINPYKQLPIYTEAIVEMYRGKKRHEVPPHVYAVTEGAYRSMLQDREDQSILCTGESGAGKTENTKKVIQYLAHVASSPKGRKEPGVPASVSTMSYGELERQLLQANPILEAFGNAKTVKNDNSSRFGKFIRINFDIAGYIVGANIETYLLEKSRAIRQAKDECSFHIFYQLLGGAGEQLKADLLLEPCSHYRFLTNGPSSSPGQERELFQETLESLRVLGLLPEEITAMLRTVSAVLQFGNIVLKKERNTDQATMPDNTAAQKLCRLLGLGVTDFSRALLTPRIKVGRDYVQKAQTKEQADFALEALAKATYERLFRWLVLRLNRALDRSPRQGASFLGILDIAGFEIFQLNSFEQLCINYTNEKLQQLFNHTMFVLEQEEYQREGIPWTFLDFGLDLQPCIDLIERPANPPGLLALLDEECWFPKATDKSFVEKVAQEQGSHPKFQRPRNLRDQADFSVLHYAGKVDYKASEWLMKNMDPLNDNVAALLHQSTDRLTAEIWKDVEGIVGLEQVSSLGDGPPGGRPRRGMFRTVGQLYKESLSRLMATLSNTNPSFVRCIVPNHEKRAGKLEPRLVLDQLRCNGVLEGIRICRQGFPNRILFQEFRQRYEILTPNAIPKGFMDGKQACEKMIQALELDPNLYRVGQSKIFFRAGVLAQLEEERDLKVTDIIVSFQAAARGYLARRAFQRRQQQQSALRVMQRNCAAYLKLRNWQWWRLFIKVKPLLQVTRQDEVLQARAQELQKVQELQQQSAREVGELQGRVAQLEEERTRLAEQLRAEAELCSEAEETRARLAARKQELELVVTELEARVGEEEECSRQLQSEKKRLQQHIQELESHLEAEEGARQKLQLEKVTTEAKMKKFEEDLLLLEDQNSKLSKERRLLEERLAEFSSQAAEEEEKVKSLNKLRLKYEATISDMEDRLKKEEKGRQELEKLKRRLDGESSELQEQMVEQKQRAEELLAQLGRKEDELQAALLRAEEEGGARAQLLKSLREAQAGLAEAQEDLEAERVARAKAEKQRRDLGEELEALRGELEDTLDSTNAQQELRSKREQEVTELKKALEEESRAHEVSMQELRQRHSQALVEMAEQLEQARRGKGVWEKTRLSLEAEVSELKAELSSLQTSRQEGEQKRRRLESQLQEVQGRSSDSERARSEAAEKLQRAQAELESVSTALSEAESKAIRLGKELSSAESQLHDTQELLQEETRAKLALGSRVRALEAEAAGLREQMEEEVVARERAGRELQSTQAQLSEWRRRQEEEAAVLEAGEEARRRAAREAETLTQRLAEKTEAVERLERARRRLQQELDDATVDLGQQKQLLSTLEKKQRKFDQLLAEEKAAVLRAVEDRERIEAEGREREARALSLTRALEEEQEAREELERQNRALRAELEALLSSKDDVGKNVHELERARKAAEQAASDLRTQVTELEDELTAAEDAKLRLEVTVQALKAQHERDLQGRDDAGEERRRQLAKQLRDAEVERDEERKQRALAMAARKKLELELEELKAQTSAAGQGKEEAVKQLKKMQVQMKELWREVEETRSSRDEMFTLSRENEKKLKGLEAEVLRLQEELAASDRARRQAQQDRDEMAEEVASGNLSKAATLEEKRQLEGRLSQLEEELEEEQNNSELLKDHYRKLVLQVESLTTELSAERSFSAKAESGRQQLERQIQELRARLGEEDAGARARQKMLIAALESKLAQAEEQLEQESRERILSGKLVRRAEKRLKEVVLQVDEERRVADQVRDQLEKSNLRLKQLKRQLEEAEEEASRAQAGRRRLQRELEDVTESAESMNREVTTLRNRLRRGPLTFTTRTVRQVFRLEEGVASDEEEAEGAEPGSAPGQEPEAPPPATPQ

Biological target: T1, SEPT9-mNeonGreen (mouse (endogenous in colonic epithelial cells of knockin mice)) (UniProt Q80UG5)
T1 sequence: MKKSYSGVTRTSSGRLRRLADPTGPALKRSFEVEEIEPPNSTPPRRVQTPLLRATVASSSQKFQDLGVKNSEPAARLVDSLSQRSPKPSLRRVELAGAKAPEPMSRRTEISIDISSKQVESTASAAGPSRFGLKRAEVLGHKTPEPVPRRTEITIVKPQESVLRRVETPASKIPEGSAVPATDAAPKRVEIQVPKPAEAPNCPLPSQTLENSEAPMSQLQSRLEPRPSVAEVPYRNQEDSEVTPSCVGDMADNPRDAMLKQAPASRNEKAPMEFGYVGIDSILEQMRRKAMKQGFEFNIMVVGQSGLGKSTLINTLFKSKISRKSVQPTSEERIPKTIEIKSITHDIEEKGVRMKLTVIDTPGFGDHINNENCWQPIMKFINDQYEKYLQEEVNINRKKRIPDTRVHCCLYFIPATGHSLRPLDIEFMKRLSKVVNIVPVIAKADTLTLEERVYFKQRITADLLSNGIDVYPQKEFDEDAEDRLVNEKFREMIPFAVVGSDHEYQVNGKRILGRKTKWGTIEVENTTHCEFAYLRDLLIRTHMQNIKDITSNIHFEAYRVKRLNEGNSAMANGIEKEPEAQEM
Test: co-IP; mouse colonic epithelial cells of SEPT9^mNG knockin mice isolated, lysed and incubated with anti-mNeonGreen-conjugated magnetic beads; immunoblot; SEPT9^fl/fl mice as control

binding: binds
Molecule: nonmuscle myosin IIC (mouse) (from UniProt Q6URW6 1-2000)

binding: binds
B1: SEPT7 (protein, UniProt O55131 1-436)
chain: MSVSARSAAAEERSVNCGTMAQPKNLEGYVGFANLPNQVYRKSVKRGFEFTLMVVGESGLGKSTLINSLFLTDLYSPEYPGPSHRIKKTVQVEQSKVLIKEGGVQLLLTIVDTPGFGDAVDNSNCWQPVIDYIDSKFEDYLNAESRVNRRQMPDNRVQCCLYFIAPSGHGLKPLDIEFMKRLHEKVNIIPLIAKADTLTPEECQQFKKQIMKEIQEHKIKIYEFPETDDEEENKLVKKIKDRLPLAVVGSNTIIEVNGKRVRGRQYPWGVAEVENGEHCDFTILRNMLIRTHMQDLKDVTNNVHYENYRSRKLAAVTYNGVDNNKNKGQLTKSPLAQMEEERREHVAKMKKMEMEMEQVFEMKVKEKVQKLKDSEAELQRRHEQMKKNLEAQHKELEEKRRQFEEEKANWEAQQRILEQQNSSRTLEKNKKKGKIF
